# PubChem BioAssay AID1671195, Yale University – 2021
# Aim: 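Knockdowns that increase or decrease uptake of fluorescent LDL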 (primary screen)
# Cell system: human Huh7 hepatoma cells
# Reagents: siRNA pool against human genes, 18 nM
# Timing: about 2 to 2.5 days of knockdown, then 8 h LDL uptake
# Treatment: DiI-labelled LDL at 30 µg/ml for 8 h, in lipoprotein-deficient serum medium
# Measurement: 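Fluorescent LDL signal imaged in cells, scaled to the plate median, robust z-score for each replicate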
# Direction: robust z-score: higher = more LDL uptake after knockdown
# Call rule: 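a gene counts as active if at least two replicate z-scores exceed ±2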
# Here is an unselected part of about 22,000 reagents tested. In the full data, about 1,510 (6.9%) were called active. 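Active includes knockdowns raising or lowering LDL uptake; positive z-scores mean more uptake, negative mean less.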
gene knocked down,"robust z-score, replicate 1","robust z-score, replicate 2","robust z-score, replicate 3",Call
BHLHE22-AS1,1.38,1.31,1.04,inactive
LOC441778 (retired record),1.08,1.47,1.44,inactive
ICAM2,2.45,1.6,0.633,inactive
NOXO1,-0.804,1.36,0.725,inactive
EPRS1,0.562,0.449,0.688,inactive
RPLP2,-1.87,-1.95,-2.72,active
AURKAIP1,-0.489,-1.84,-1.1,inactive
GSTM5,-0.458,0.104,-0.677,inactive
RAB3IL1,-0.935,-1.85,-0.539,inactive
LRRTM4,1.18,1.28,1.4,inactive
TIMM8B,-1.24,-0.584,-0.466,inactive
GPHA2,0.0369,0.0281,0.356,inactive
LOC102725228,4.08,3.22,3.54,active
SFXN5,-0.809,-0.861,-0.752,inactive
LOC283604 (retired record),-0.42,-0.43,-0.507,inactive
RHPN1-AS1,-1.93,-1.31,-1.66,inactive
RBCK1,1.91,0.229,3.84,active
ACTMAP,0.769,0.952,1.94,inactive
LOC400097 (retired record),0.299,-0.446,-0.433,inactive
LOC400768 (retired record),0.139,0.389,1.09,inactive
PLK1,0.234,1.12,-0.246,inactive
LOC401921 (retired record),-0.54,-1.73,-0.817,inactive
SEZ6L2,3.73,3.05,3.27,active
RBM15-AS1,-0.978,-0.312,-0.606,inactive
LMAN2,-0.491,-0.212,-0.473,inactive
SIMC1,-0.188,0.142,0.501,inactive
HMGCS1P1,0.449,0.967,1.49,inactive
CA2,-3.38,-1.15,-1.06,inactive
GOLT1B,0.444,-0.761,-2.22,inactive
NUP210L,4.03,1.31,4.38,active
RAB9A,-0.584,1.62,0.296,inactive
KAAG1,2.22,1.94,2.38,active
MAPK3,-0.819,-0.117,0.369,inactive
RCC1L,1.33,0.891,0.384,inactive
HTATIP2,-0.0672,-0.229,-0.619,inactive
TMEM50B,-0.889,-0.41,-0.842,inactive
LOC391088 (retired record),0.425,0.544,0.181,inactive
NDUFAF6,-0.169,0.236,-0.109,inactive
GABRG3,-0.327,-0.633,-0.61,inactive
EDA,-1.02,1.28,-0.379,inactive
LOC441429 (retired record),0.189,0.513,0.903,inactive
CYP2A13,1.35,0.707,1.15,inactive
LOC440707 (retired record),-1.65,-1.02,-1.48,inactive
TPH1,-0.319,-0.199,-0.266,inactive
SNRPA,0.653,0.304,-0.0835,inactive
TRAPPC13,-1.07,-1,-1.42,inactive
ADGRE2,-1.97,-2.18,-2.31,active
PBX1,1.34,1.64,1.5,inactive

Reformatted: results already given.
gene knocked down | robust z-score, replicate 1 | robust z-score, replicate 2 | robust z-score, replicate 3 | Call
RBM15-AS1 | -0.978 | -0.312 | -0.606 | inactive
LMAN2 | -0.491 | -0.212 | -0.473 | inactive
SIMC1 | -0.188 | 0.142 | 0.501 | inactive
HMGCS1P1 | 0.449 | 0.967 | 1.49 | inactive
CA2 | -3.38 | -1.15 | -1.06 | inactive
GOLT1B | 0.444 | -0.761 | -2.22 | inactive
NUP210L | 4.03 | 1.31 | 4.38 | active
RAB9A | -0.584 | 1.62 | 0.296 | inactive
KAAG1 | 2.22 | 1.94 | 2.38 | active
MAPK3 | -0.819 | -0.117 | 0.369 | inactive
RCC1L | 1.33 | 0.891 | 0.384 | inactive
HTATIP2 | -0.0672 | -0.229 | -0.619 | inactive

Next results follow:
gene knocked down,"robust z-score, replicate 1","robust z-score, replicate 2","robust z-score, replicate 3",Call
RBSN,-1.31,-0.395,-0.539,inactive
LINC00517,0.684,0.441,-0.122,inactive
MFSD11,-1.37,-1.01,-1.06,inactive
RFTN2,-1.92,-2.83,-2.1,active
HERPUD2,0.589,0.0457,0.274,inactive
CREB3,1.67,1.38,0.342,inactive
ARAF,0.303,-0.0477,-0.43,inactive
ZMYM6,-0.506,-1.35,-0.611,inactive
LINC03019,-0.825,-0.994,-1.05,inactive
LOC400526 (retired record),4.25,3.2,3.58,active
DDX18,0.175,0.249,0.474,inactive
THSD7A,0.698,0.206,0.714,inactive
TTC39A,1.52,0.142,1.15,inactive
DDX23,0.542,-1.3,-1.68,inactive
CEP57L1,-1.05,-1.02,-0.882,inactive
OR14A16,-0.359,-0.079,-0.171,inactive
TENM2,-0.821,0.405,-0.145,inactive
LRP11,-0.0643,0.426,-0.0154,inactive
LOC440377 (retired record),1.79,1.95,1.57,inactive
LIN28B,-0.103,0.943,-0.605,inactive
CFHR5,-0.678,0.251,0.404,inactive
MALSU1,-0.194,0.915,0.179,inactive
DVL3,-0.702,-0.449,-0.673,inactive
SLC22A23,1.04,0.233,0.135,inactive
CNOT1,-0.963,0.514,-1.83,inactive
PLA2G4C,-0.755,-2.19,-0.623,inactive
KCNG2,-1.8,-1.55,-1.62,inactive
VCPIP1,0.526,-0.546,0.122,inactive
PLEKHF2,-1.16,-0.856,-0.703,inactive
FKBP15,1.13,0.905,0.102,inactive
ETFBKMT,-0.194,0.0468,-0.268,inactive
APPL1,1.73,1.53,1.84,inactive
THEM4,-0.227,-0.597,0.204,inactive
EBLN2,-0.846,-0.826,0.214,inactive
LINC03034,0.655,0.516,0.135,inactive
KLF15,-1.57,-1.67,-1.9,inactive
TMEM192,-0.52,-0.625,-0.908,inactive
ANK1,-2.02,-2.3,-2.32,active
ADGRF2P,-0.898,0.214,-0.506,inactive
